Drug screen on melanoma cell lines: cell count

Values as published with doi:10.1371/journal.pone.0140310, rounded.

Drugs:
KU-0063794 (0.1 µM): COc1ccc(-c2ccc3c(N4CCOCC4)nc(N4C[C@@H](C)O[C@@H](C)C4)nc3n2)cc1CO
OSI-906 (2 µM): C[C@]1(O)C[C@@H](c2nc(-c3ccc4ccc(-c5ccccc5)nc4c3)c3c(N)nccn32)C1
YM155 (0.002 µM): COCC[n+]1c2c(n(Cc3cnccn3)c1C)C(=O)c1ccccc1C2=O
GW9662 (10 µM): O=C(Nc1ccccc1)c1cc([N+](=O)[O-])ccc1Cl
LFM-A13 (10 µM): C/C(O)=C(\C#N)C(=O)Nc1cc(Br)ccc1Br
BMS-536924 (1 µM): Cc1cc(N2CCOCC2)cc2[nH]c(-c3c(NC[C@@H](O)c4cccc(Cl)c4)cc[nH]c3=O)nc12
dorsomorphin (2 µM): c1cc(-c2cnn3cc(-c4ccc(OCCN5CCCCC5)cc4)cnc23)ccn1
temozolomide (10 µM): Cn1nnc2c(C(N)=O)ncn2c1=O
lenalidomide (5 µM): Nc1cccc2c1CN(C1CCC(=O)NC1=O)C2=O (centres unmarked)
erlotinib (4 µM): C#Cc1cccc(Nc2ncnc3cc(OCCOC)c(OCCOC)cc23)c1
indole-3-carbinol (4 µM): OCc1c[nH]c2ccccc12
CHIR-265 (0.4 µM): Cn1c(Nc2ccc(C(F)(F)F)cc2)nc2cc(Oc3ccnc(-c4ncc(C(F)(F)F)[nH]4)c3)ccc21
VX-702 (2 µM): NC(=O)c1ccc(N(C(N)=O)c2c(F)cccc2F)nc1-c1ccc(F)cc1F
vatalanib (10 µM): Clc1ccc(Nc2nnc(Cc3ccncc3)c3ccccc23)cc1
PF-04217903 (5 µM): OCCn1cc(-c2cnc3nnn(Cc4ccc5ncccc5c4)c3n2)cn1
cediranib (2 µM): COc1cc2c(Oc3ccc4[nH]c(C)cc4c3F)ncnc2cc1OCCCN1CCCC1
veliparib (7 µM): C[C@]1(c2nc3c(C(N)=O)cccc3[nH]2)CCCN1

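The test systems are human melanoma cell lines, treated with a pair of drugs for 72 h and then stained and imaged. Values are the number of DAPI-stained nuclei as a percentage of the DMSO control: 100 is no effect, lower means fewer cells. Every drug was used at one fixed concentration, the higher of two screened. These are primary screening values without error estimates.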 This is part of the screen, not chosen by result.

Pair | COLO 792 | COLO 829 | COLO 800 | C32
cediranib + KU-0063794 | 65.1 | 91.1 | 64.0 | 93.6
KU-0063794 + VX-702 | 77.0 | 75.4 | 100 | 85.4
temozolomide + CHIR-265 | 23.2 | 64.1 | 64.4 | 72.5
erlotinib + veliparib | 36.0 | 71.9 | 45.9 | 100
temozolomide + erlotinib | 40.0 | 68.2 | 105 | 72.3
veliparib + GW9662 | 86.0 | 52.3 | 31.2 | 102
LFM-A13 + KU-0063794 | 70.7 | 93.7 | 49.2 | 96.4
OSI-906 + temozolomide | 100 | 83.8 | 63.8 | 98.9
VX-702 + YM155 | 61.3 | 80.5 | 38.3 | 100
indole-3-carbinol + veliparib | 101 | 73.8 | 53.8 | 102
YM155 + erlotinib | 28.9 | 39.9 | 36.0 | 106
VX-702 + GW9662 | 92.6 | 64.5 | 47.2 | 91.2
YM155 + lenalidomide | 32.0 | 54.9 | 53.1 | 88.2
OSI-906 + vatalanib | 53.5 | 74.6 | 43.3 | 83.2
LFM-A13 + VX-702 | 93.5 | 92.8 | 94.6 | 111
vatalanib + lenalidomide | 67.1 | 55.7 | 50.5 | 116
indole-3-carbinol + vatalanib | 53.3 | 57.7 | 51.0 | 90.2
OSI-906 + cediranib | 58.9 | 97.3 | 47.5 | 96.0
erlotinib + VX-702 | 42.4 | 57.1 | 72.7 | 90.7
dorsomorphin + PF-04217903 | 107 | 71.7 | 66.9 | 69.2
PF-04217903 + VX-702 | 104 | 102 | 64.1 | 96.5
lenalidomide + CHIR-265 | 24.2 | 79.3 | 70.9 | 58.9
OSI-906 + dorsomorphin | 76.5 | 74.2 | 34.7 | 70.5
CHIR-265 + indole-3-carbinol | 18.7 | 58.3 | 53.8 | 64.8
KU-0063794 + veliparib | 71.7 | 88.3 | 32.8 | 82.9
lenalidomide + temozolomide | 112 | 74.6 | 158 | 96.6
LFM-A13 + BMS-536924 | 71.8 | 106 | 39.0 | 81.6
PF-04217903 + YM155 | 60.1 | 85.4 | 33.4 | 106
temozolomide + indole-3-carbinol | 74.4 | 78.9 | 75.5 | 111
erlotinib + vatalanib | 45.4 | 54.2 | 91.6 | 107
cediranib + dorsomorphin | 64.7 | 80.9 | 95.0 | 52.6
VX-702 + BMS-536924 | 58.0 | 104 | 40.8 | 105
vatalanib + YM155 | 69.2 | 52.6 | 72.7 | 89.9
KU-0063794 + PF-04217903 | 73.2 | 70.2 | 90.4 | 93.6
CHIR-265 + erlotinib | 21.5 | 62.3 | 56.5 | 37.8
veliparib + YM155 | 67.1 | 94.9 | 44.5 | 83.3
erlotinib + indole-3-carbinol | 48.2 | 85.6 | 70.1 | 102
BMS-536924 + OSI-906 | 65.0 | 106 | 33.0 | 90.7
LFM-A13 + temozolomide | 104 | 92.3 | 71.1 | 99.8

Once more, the final 5:

{"pair": "CHIR-265 + erlotinib", "COLO 792": 21.5, "COLO 829": 62.3, "COLO 800": 56.5, "C32": 37.8}
{"pair": "veliparib + YM155", "COLO 792": 67.1, "COLO 829": 94.9, "COLO 800": 44.5, "C32": 83.3}
{"pair": "erlotinib + indole-3-carbinol", "COLO 792": 48.2, "COLO 829": 85.6, "COLO 800": 70.1, "C32": 102}
{"pair": "BMS-536924 + OSI-906", "COLO 792": 65.0, "COLO 829": 106, "COLO 800": 33.0, "C32": 90.7}
{"pair": "LFM-A13 + temozolomide", "COLO 792": 104, "COLO 829": 92.3, "COLO 800": 71.1, "C32": 99.8}